Measurements reported in PubChem BioAssay AID1508597 (Cure First, 2020).

- Assay: 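Knock-downs altering ovarian cancer cell survival with or without PARP inhibitor rucaparib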 (primary screen)
- Cell system: human ovarian carcinoma lines grown from tumours: OCI-P5x (papillary serous) and OCI-C5x (clear cell)
- Knock-down reagent: siRNA pool against human genes, 1.25 pmol siRNA per well
- Timing: 72 h or 96 h, depending on the cell culture
- Treatment: rucaparib 20 µM (about IC30) or vehicle, present until read-out
- Rucaparib or vehicle: Rucaparib
- Cell line: OCI-C5x (clear cell)
- Detection: 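ATP luminescence measured at 72 or 96 h according to the culture, then normalised and expressed as percent viability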
- Scale: viability, normalised: higher = more viable cells remaining
- Call rule: 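a well counts as a hit if its normalised viability is under 80 percent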
- Calls: active = viability under 80%; inactive = viability 80% or more
Shown is an unselected part of the about 2,100 reagents, under one of the conditions tested. 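Calls flag viability under 80% in either arm, not effects specific to rucaparib; the reference for percent is not stated.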 Entries without a mark were called inactive. Not given: the 100% reference.

| gene knocked down | technical replicate | viability, normalised (%) |
| --- | --- | --- |
| ROR1 | 1 | 48.3 (active) |
| ROR1 | 2 | 63.4 (active) |
| ROR1 | 3 | 54.8 (active) |
| GTF2H2 | 1 | 64.7 (active) |
| GTF2H2 | 2 | 63.4 (active) |
| GTF2H2 | 3 | 66.2 (active) |
| CARM1 | 1 | 41.5 (active) |
| CARM1 | 2 | 46.8 (active) |
| CARM1 | 3 | 23.4 (active) |
| CUL3 | 1 | 68.2 (active) |
| CUL3 | 2 | 66.6 (active) |
| CUL3 | 3 | 68 (active) |
| HIPK4 | 1 | 40.1 (active) |
| HIPK4 | 2 | 47.4 (active) |
| HIPK4 | 3 | 55.6 (active) |
| NAP1L5 | 1 | 45.1 (active) |
| NAP1L5 | 2 | 57.1 (active) |
| NAP1L5 | 3 | 50.8 (active) |
| ASH2L | 1 | 52.3 (active) |
| ASH2L | 2 | 56.2 (active) |
| ASH2L | 3 | 61.4 (active) |
| EEF1E1 | 1 | 66.7 (active) |
| EEF1E1 | 2 | 51.2 (active) |
| EEF1E1 | 3 | 53.7 (active) |
| RAD9A | 1 | 55.2 (active) |
| RAD9A | 2 | 33.5 (active) |
| RAD9A | 3 | 48.4 (active) |
| RPS6KA4 | 1 | 58.3 (active) |
| RPS6KA4 | 2 | 77.9 (active) |
| RPS6KA4 | 3 | 56.6 (active) |
| NR3C1 | 1 | 54.2 (active) |
| NR3C1 | 2 | 43.7 (active) |
| NR3C1 | 3 | 35 (active) |
| PHKA2 | 1 | 57.7 (active) |
| PHKA2 | 2 | 72.6 (active) |
| PHKA2 | 3 | 80.5 |
| CYLD | 1 | 52.9 (active) |
| CYLD | 2 | 44.1 (active) |
| CYLD | 3 | 39.4 (active) |
| MSH5 | 1 | 62.5 (active) |
| MSH5 | 2 | 54.7 (active) |
| MSH5 | 3 | 52.6 (active) |
| LIMK1 | 1 | 40.3 (active) |
| LIMK1 | 2 | 47.4 (active) |
| LIMK1 | 3 | 55.6 (active) |
| HDAC6 | 1 | 44.6 (active) |
| HDAC6 | 2 | 42.5 (active) |
| HDAC6 | 3 | 46.8 (active) |
| FAN1 | 1 | 58.4 (active) |
| FAN1 | 2 | 71.5 (active) |
| FAN1 | 3 | 51.7 (active) |
| H2BC12 | 1 | 64.4 (active) |
| H2BC12 | 2 | 69.1 (active) |
| H2BC12 | 3 | 54.6 (active) |
| RHO | 1 | 36 (active) |
| RHO | 2 | 29.6 (active) |
| RHO | 3 | 21.8 (active) |
